Laboratory results taken from paper PMC8668916.
Results are given in words; binding and its absence hold for the method and conditions named. Binding seen in cells or lysates may run through a third protein. Some binding calls cover weakened binding; strength is not graded here.

Protein sequences, listed by entry. Tags and fused reporters are not part of them.
UniProt O94759: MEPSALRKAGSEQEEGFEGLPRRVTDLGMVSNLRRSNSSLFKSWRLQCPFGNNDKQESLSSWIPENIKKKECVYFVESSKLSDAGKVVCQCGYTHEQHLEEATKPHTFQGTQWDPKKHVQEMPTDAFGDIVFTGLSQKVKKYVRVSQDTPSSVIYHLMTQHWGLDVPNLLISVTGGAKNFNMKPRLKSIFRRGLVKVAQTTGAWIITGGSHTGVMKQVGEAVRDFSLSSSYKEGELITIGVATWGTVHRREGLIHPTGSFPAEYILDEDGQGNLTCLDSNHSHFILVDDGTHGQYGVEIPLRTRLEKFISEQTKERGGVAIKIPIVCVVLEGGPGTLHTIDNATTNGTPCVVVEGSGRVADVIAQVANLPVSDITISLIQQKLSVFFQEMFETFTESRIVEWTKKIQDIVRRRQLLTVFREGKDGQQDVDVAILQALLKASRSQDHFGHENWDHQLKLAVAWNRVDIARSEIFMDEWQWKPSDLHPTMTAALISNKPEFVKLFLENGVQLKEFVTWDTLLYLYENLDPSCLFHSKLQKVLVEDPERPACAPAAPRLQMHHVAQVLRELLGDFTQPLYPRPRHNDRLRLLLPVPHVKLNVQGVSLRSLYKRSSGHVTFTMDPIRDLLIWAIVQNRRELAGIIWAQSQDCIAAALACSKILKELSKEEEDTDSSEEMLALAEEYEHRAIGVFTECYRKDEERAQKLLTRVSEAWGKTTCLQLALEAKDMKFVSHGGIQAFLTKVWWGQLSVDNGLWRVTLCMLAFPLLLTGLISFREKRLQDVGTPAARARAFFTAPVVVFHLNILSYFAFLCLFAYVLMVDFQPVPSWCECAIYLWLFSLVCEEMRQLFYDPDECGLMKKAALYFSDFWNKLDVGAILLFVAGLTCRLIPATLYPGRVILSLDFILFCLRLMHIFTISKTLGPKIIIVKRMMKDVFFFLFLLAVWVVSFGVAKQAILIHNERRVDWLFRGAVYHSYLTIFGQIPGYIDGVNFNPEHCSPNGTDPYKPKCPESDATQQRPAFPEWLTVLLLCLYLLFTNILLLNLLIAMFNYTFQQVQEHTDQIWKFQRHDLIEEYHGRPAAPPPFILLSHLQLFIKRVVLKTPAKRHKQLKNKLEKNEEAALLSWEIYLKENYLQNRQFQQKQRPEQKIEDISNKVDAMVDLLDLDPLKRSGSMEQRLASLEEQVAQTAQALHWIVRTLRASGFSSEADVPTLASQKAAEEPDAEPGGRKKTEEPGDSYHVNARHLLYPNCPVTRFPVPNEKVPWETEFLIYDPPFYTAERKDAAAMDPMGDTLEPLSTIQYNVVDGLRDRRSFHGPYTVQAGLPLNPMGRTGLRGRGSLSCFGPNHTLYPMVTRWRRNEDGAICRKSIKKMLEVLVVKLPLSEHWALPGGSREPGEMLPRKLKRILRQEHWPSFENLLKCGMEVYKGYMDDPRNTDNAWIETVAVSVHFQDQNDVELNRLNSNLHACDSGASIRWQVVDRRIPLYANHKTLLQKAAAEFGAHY
UniProt P19474: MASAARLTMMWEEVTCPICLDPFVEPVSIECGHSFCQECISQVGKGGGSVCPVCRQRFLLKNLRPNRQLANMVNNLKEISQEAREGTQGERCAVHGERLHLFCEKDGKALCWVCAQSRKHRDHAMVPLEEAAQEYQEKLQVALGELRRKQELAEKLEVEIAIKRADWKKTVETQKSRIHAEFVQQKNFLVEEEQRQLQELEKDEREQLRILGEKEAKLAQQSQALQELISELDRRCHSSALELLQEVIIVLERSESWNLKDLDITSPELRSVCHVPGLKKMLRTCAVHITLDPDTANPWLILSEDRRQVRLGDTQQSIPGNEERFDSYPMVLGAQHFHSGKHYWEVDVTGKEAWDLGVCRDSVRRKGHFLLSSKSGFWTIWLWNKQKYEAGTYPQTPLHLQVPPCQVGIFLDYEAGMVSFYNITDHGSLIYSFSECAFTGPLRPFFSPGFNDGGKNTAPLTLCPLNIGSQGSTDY

Biological target: TRPM2 (Transient receptor potential cation channel subfamily M member 2) (human (endogenous in THP-1)) (UniProt O94759)
Experiment: co-IP; co-immunoprecipitation in THP-1 lysates, TRPM2 antibodies used for IP, TRIM21 detected by Western blot; also in shNC and shAS (lncTRPM2-AS-silenced) lysates, where silencing gave stronger binding

E3 ubiquitin ligase TRIM21 (from UniProt P19474 1-475) (enzyme)
binding: binds
